PubChem BioAssay AID1224830 – NIAID – 2016

Aim: 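Genes whose knock-down alters the TNF-alpha reporter response to LPS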 (primary screen)
Cells: human THP-1 monocytic leukaemia cells, TNF dual-luciferase reporter clone, PMA-differentiated to macrophage-like cells
Knock-down reagent: siRNA pool against human genes, 50 nM
Timing: LPS for 4 h, given about 3 days after siRNA transfection
Challenge: bacterial LPS (TLR4 ligand), 10 ng/ml
Read-out: 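Ratio of firefly to renilla light, scaled to the plate median and expressed as a robust z-score per replicate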
Direction: TNF reporter robust z-score: higher = stronger TNF reporter response to LPS
Call rule: 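Each well counts as active if its z-score is over 2.8 or under -1.5; controls are left without a call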
Here is an unselected part of about 18,000 reagents. About 2,900 of all reagents (16%) were called active. 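Calls are made per well; low scores hint the gene aids the LPS response, high scores that it dampens it.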 Entries without a mark were called inactive. Repeated entries: four replicate wells of each siRNA pool.

The first 8 entries, to show the layout:
gene | TNF reporter robust z-score
CATSPERB | -1.61 (active)
CATSPERB | -1.38
CATSPERB | 0.38
CATSPERB | -1.02
HNRNPUL1 | 1.34
HNRNPUL1 | 2.21
HNRNPUL1 | -0.99
HNRNPUL1 | -0.95

The listing, from the first entry:
gene | TNF reporter robust z-score
CATSPERB | -1.61 (active)
CATSPERB | -1.38
CATSPERB | 0.38
CATSPERB | -1.02
HNRNPUL1 | 1.34
HNRNPUL1 | 2.21
HNRNPUL1 | -0.99
HNRNPUL1 | -0.95
DAPK2 | -0.68
DAPK2 | -0.09
DAPK2 | -0.74
DAPK2 | -1.18
ABLIM3 | -0.47
ABLIM3 | 0.58
ABLIM3 | -0.01
ABLIM3 | 1.16
LMNTD1 | -0.38
LMNTD1 | -0.23
LMNTD1 | 0
LMNTD1 | 1.59
ATP8B2 | -0.34
ATP8B2 | 0.26
ATP8B2 | 0.12
ATP8B2 | -0.57
COL9A3 | -0.34
COL9A3 | 0.05
COL9A3 | -1.06
COL9A3 | 0.03
BOLL | 0.47
BOLL | 0.7
BOLL | 1.03
BOLL | 1.95
BRD1 | -0.26
BRD1 | -0.76
BRD1 | -0.11
BRD1 | -0.45
GNL3L | 0.35
GNL3L | -0.22
GNL3L | -0.36
GNL3L | 0.53
MMD2 | 0.53
MMD2 | 1.23
MMD2 | 0.91
MMD2 | 0.07
ZFYVE1 | -0.47
ZFYVE1 | 0.16
ZFYVE1 | -0.59
ZFYVE1 | -0.14
VAMP3 | 1.34
VAMP3 | -0.47
VAMP3 | 0.3
VAMP3 | 0.52
FLCN | -1.15
FLCN | -0.81
FLCN | -0.51
FLCN | 0.46
OR8H1 | 0.23
OR8H1 | 0.68
OR8H1 | -0.18
OR8H1 | 0.65
NISCH | -0.3
NISCH | 0.26
NISCH | -0.33
NISCH | 0.14
TNPO1 | -0.23
TNPO1 | 1.06
TNPO1 | 0.95
TNPO1 | -0.42
FAM216A | 0.15
FAM216A | -1.19
FAM216A | -0.89
FAM216A | -0.42
TNPO2 | 0.46
TNPO2 | 1.76
TNPO2 | 0.68
TNPO2 | -1.64 (active)
